Assay results as given in US4736067A, “New dimethyl derivatives of 3-nitro-4-aminoaniline, process for their preparation and their use for dyeing keratinic fibers” (L'Oreal, priority 1983, dated 1988).

Experiment: Resistance of dye / hair colouring to washing, light, weathering

Row | SMILES | resistance to washing and to light
1 | Cc1cc(N)c([N+](=O)[O-])c(C)c1N [2,6-dimethyl-3-nitroparaphenylenediamine] | resistant to washing and to light
2 | CNc1c(C)cc(N)c([N+](=O)[O-])c1C [4-amino-2,6-dimethyl-3-nitro-N-methylaniline] | resistant to washing and to light
3 | CCN(CC)CCNc1cc([N+](=O)[O-])c(N)c(C)c1C [4-amino-5,6-dimethyl-3-nitro-N-(β-diethylaminoethyl)aniline] | resistant to washing and to light
4 | Cc1c(NCC(O)CO)cc([N+](=O)[O-])c(N)c1C (stereo not drawn) [4-amino-5,6-dimethyl-3-nitro-N-β,γ-dihydroxypropylaniline] | resistant to washing and to light
5 | Cc1c(NCCN)cc([N+](=O)[O-])c(N)c1C [4-amino-5,6-dimethyl-3-nitro-N-β-aminoethylaniline] | resistant to washing and to light
6 | Cc1c(NCCO)cc([N+](=O)[O-])c(N)c1C [4-amino-5,6-dimethyl-3-nitro-N-β-hydroxyethylaniline] | resistant to washing and to light
7 | Cc1c(N)cc([N+](=O)[O-])c(N)c1C [5,6-dimethyl-3-nitroparaphenylenediamine] | resistant to washing and to light

Some entries repeat one wording, which the source may state once for all of them.
